# Assay results as given in PubChem BioAssay AID2517 (National Center for Advancing Translational Sciences (NCATS), 2010).
# Sequences of proteins named here, by UniProt entry; tags and fusion partners are left off.
# UniProt P27695, whole entry, looked up: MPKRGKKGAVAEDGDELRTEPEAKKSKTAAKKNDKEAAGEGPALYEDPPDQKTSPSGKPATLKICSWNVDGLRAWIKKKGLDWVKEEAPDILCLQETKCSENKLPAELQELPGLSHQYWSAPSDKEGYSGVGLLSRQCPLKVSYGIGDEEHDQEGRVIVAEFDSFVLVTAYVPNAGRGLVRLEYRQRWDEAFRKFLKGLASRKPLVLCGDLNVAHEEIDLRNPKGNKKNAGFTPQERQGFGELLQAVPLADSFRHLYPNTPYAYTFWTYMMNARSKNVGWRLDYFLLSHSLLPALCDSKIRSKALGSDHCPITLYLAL
# Among all 350,000 compounds or so, about 1,200 (0.34%) were called active. This list was built around the results that the source calls inconclusive (neither active nor inactive); the mix of calls is not that of the screen. Calls follow the shape of the dose curve; as a rule, active = well fitted inhibition curve with a large enough effect; inconclusive = small, poorly fitted or top-dose-only effect; inactive = no such curve, though single readings can be large or run the other way. Potencies beside an inconclusive call are fits to weak or partial responses and may not hold up.
# Target: DNA repair nuclease/redox regulator APEX1 (Homo sapiens) (UniProt P27695)
# Assay: qHTS Assay for Inhibitors of the Human Apurinic/apyrimidinic Endonuclease 1 (APE1); also: nearly all actives have a fitted effect of over 55% in size;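 as to activity change, negative = inhibition: plate controls were vehicle for no effect and reference inhibitor for full effect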
# Details: recombinant APE1, TAMRA/BHQ-2 abasic DNA cleavage fluorescence; activity change, negative = inhibition: at 65.8 µM (top of the series)
# Method in brief: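 Endonuclease cleavage of a quenched abasic-site DNA duplex (50 nM) by APE1 (0.75 nM) was tracked by TAMRA dequenching. Compounds were preincubated with enzyme 15 min at room temperature; data normalized to buffer-only and DMSO wells plus NSC13755 control.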
# Potency is read from the fitted curve at half-maximal effect.
SMILES,Potency,"activity change, negative = inhibition"
COc1cccc2cc(C(=O)OC3CCN(C)CC3)c(=O)oc12,"inconclusive: 17.8 µM [inhibitor, partial curve]",
COc1cc(/C=C2\SC(=O)N(Cc3ccc(F)cc3)C2=O)cc([N+](=O)[O-])c1O,inactive,
CC(=O)N1CCc2c(sc(NC(=O)C3CC3)c2-c2nc3ccccc3s2)C1,"inconclusive: 28.2 µM [inhibitor, single point]",
Cc1ccc(N=Nc2[nH]c3ccccc3c2O)cc1,inactive,
CC(=O)COC(=O)C1CCN(S(=O)(=O)c2cc([N+](=O)[O-])ccc2Cl)CC1,"inconclusive: 44.7 µM [inhibitor, single point]",
COc1cc(/C=C2\SC(=O)N(c3ccccc3Cl)C2=O)cc([N+](=O)[O-])c1O,inactive,
Cc1nn(-c2ccccc2)c2sc(C(=O)OCn3nnc4ccccc4c3=O)cc12,"inconclusive: 39.8 µM [inhibitor, single point]",
CC1(C)CC2(CCO1)OC(=O)CC2C(=O)Nc1ccc(Cl)cc1[N+](=O)[O-] (stereo not drawn),"inconclusive: 28.2 µM [inhibitor, single point]",
CC(C)n1c(S(=O)(=O)O)nc2ccccc21,inactive,
C#CCSc1nc(N)c2c(n1)OC(N)=C(C#N)C2c1cccnc1 (stereo not drawn),"inconclusive: 35.5 µM [inhibitor, single point]",
Cc1ccc(NC(=O)CCCCCCCCCCC2COCCO2)c(C)c1 (stereo not drawn),inactive,
Cc1ccc(Nc2ccc(C(=O)O)cc2[N+](=O)[O-])cc1,inactive,
CCCN(C#N)c1nc(NCC)nc(NC(C)C)n1,"inconclusive: 44.7 µM [inhibitor, single point]",
O=C(OCc1nnc(-c2ccccc2)o1)c1ccc([N+](=O)[O-])s1,"inconclusive: 23.8 µM [inhibitor, single point]",
Cc1c(N(C(=O)c2ccccn2)C2(C(=O)NC3CCCC3)CCCCC2)c(=O)n(-c2ccccc2)n1C,"inconclusive: 0.282 µM [inhibitor, full curve]",
CC(=O)Nc1cc(C(=O)N2CCN(C)CC2)ccc1S(=O)(=O)c1ccc(C)cc1,"inconclusive: 0.0282 µM [inhibitor, full curve, poor fit]",
Cc1cc(=O)[nH]c(SCC(=O)NC2CCCc3ccccc32)n1 (stereo not drawn),"inconclusive: 0.0631 µM [inhibitor, full curve, poor fit]",
Nc1nc2c(nc(Br)n2[C@@H]2O[C@H]3COP(=O)(O)O[C@H]3[C@@H]2O)c(=O)[nH]1,inactive,
Cn1nc(-c2ccccc2)cc1NC(=O)CCCC(=O)O,"inconclusive: 3.55 µM [inhibitor, single point]",
CCOC(=O)C(C)Oc1cccc2c(=O)n(CC(=O)N3CCCc4ccccc43)ccc12 (stereo not drawn),"inconclusive: 14.1 µM [inhibitor, partial curve, poor fit]",
Oc1cccc(/C=N/N(Cc2ccccc2)c2ccccc2)c1,"inconclusive: 22.4 µM [inhibitor, single point]",
O=C(c1ccc(F)cc1)N1CCN(Cc2ccccc2)CC1,inactive,
COCCn1c(SCC(=O)Nc2ccc(C)cc2C)nc2c(oc3ccccc32)c1=O,"inconclusive: 44.7 µM [inhibitor, single point]",
COc1ccc2c(c1)c(=O)oc1cc(OCC(=O)NC3CC3)ccc12,"inconclusive: 25.1 µM [inhibitor, partial curve]",
CC(=O)Oc1ccc2c(=O)c(Oc3ccccc3)coc2c1OC(C)=O,active: 2.24 µM,

SMILES,Potency,"activity change, negative = inhibition"
CC(C)Cc1nnc(NC(=O)Cc2cccs2)s1,"inconclusive: 44.7 µM [inhibitor, single point]",
COCCn1c(SCC(=O)NC2CC2)nc2ccccc21,inactive,
C=C(C(C)=O)C(O)/C=C/c1ccco1 (stereo not drawn),"inconclusive: 31.6 µM [inhibitor, partial curve]",
CC(C)(C)c1c(Cl)c(O)c(-c2ccccc2)c(=O)n1-c1ccccc1,inactive,
O=C(O)c1ccc(/C=N/NC(=O)c2ccc(F)cc2)cc1,"inconclusive: 31.6 µM [inhibitor, single point]",
CCC(C)NC(=O)C(Cc1ccccc1)NS(=O)(=O)c1ccc2c(c1)CCC(=O)N2 (stereo not drawn),"inconclusive: 26.7 µM [inhibitor, single point]",
Nc1ccc(-c2cnc[nH]2)cc1[N+](=O)[O-],inactive,
Cc1sc2c3ccsc3ccc2[n+]1C,inactive,
COc1ccc2c(c1)-c1nc(/N=C/c3ccc(O)c(OC)c3)sc1CC2,inactive,
COc1cccc(OC)c1OCCNCC1CSc2ccccc2O1 (stereo not drawn),"inconclusive: 10 µM [inhibitor, partial curve]",
N#Cc1ccc(-c2cccnc2)nc1SCc1ccc(Cl)c(Cl)c1,"inconclusive: 44.7 µM [inhibitor, single point]",
CN1CCN(c2ncc3nc(-c4cccs4)c(=O)n(CCC#N)c3n2)CC1,inactive,
Cc1ccc(C(=O)O)cc1NC(=O)CSc1ncnc2sc3c(c12)CCC3,"inconclusive: 44.7 µM [inhibitor, single point]",
CCc1ccc(C2C(C#N)=C(N)N(N(C)C)C3=C2C(=O)CCC3)s1 (stereo not drawn),"inconclusive: 35.5 µM [inhibitor, single point]",
O=C(Nc1ccc2c(c1)oc1ccccc12)c1cccnc1,"inconclusive: 35.5 µM [inhibitor, single point]",
O=C(C[C@@H]1C/C=C\C[C@H](NC(=O)OCC2c3ccccc3-c3ccccc32)C(=O)OC[C@@H]2CCCN2C1=O)NCCO,active: 9.47 µM,
Cc1ccc(OCC(=O)OCC(=O)N2c3ccccc3CC2C)cc1C (stereo not drawn),inactive,
COCc1cc(C)nc(OCC(=O)N/N=C/c2cccc(OC)c2)c1C#N,inactive,
CC1(C)CC(=O)c2cnc(N3CCc4ccccc43)nc2C1,"inconclusive: 7.94 µM [inhibitor, single point]",
COc1ccc2c(c1)CC/C(=C/c1ccco1)C2=O,"inconclusive: 28.2 µM [inhibitor, partial curve, poor fit]",
COc1cc(C2=NOC(C(=O)N3CCN(c4ccc(F)cc4)CC3)C2)cc(OC)c1OC (stereo not drawn),"inconclusive: 39.8 µM [inhibitor, single point]",
COc1ccc(NC(=O)Oc2cc(C)ccc2C(C)C)cc1,"inconclusive: 4.47 µM [inhibitor, single point]",
Cc1cc(C)nc(S/C=C/C(=O)c2ccccc2)n1,"inconclusive: 7.94 µM [inhibitor, single point]",
Nc1ccc(Nc2ccccc2)c(S(=O)(=O)O)c1,active: 14.1 µM,
CCN(CC)CCn1c2ccccc2c2nc3ccccc3nc21,inactive,

# Of the compounds above, these contain fluorine.
SMILES,Potency,"activity change, negative = inhibition"
COc1cc(/C=C2\SC(=O)N(Cc3ccc(F)cc3)C2=O)cc([N+](=O)[O-])c1O,inactive,
O=C(c1ccc(F)cc1)N1CCN(Cc2ccccc2)CC1,inactive,
O=C(O)c1ccc(/C=N/NC(=O)c2ccc(F)cc2)cc1,"inconclusive: 31.6 µM [inhibitor, single point]",
COc1cc(C2=NOC(C(=O)N3CCN(c4ccc(F)cc4)CC3)C2)cc(OC)c1OC (stereo not drawn),"inconclusive: 39.8 µM [inhibitor, single point]",

# The results go on:

SMILES,Potency,"activity change, negative = inhibition"
COc1ccc(OC)c(CCNC(=O)Cn2sc3nc(C)cc(C)c3c2=O)c1,"inconclusive: 0.178 µM [inhibitor, single point]",
COC(=O)CC1Oc2cc3oc4c(c3cc2O1)C(=O)CC(C)(C)C4 (stereo not drawn),inactive,
O=[N+]([O-])c1ccc(O)c2ncccc12,inactive,
CC(C)(C)OC(=O)N1CCC[C@H]1C(=O)O,"inconclusive: 8.91 µM [inhibitor, single point]",
C1CCC(NC(=NC2C3CC4CC(C3)CC2C4)N2CCOCC2)CC1 (stereo not drawn),inactive,
CC(=O)Oc1ccc2oc(C)c(C(=O)N3CCOCC3)c2c1,"inconclusive: 39.8 µM [inhibitor, single point]",
COCC(C)n1c(C)cc(C(=O)COc2ccc(S(=O)(=O)N3CCOCC3)cc2Cl)c1C (stereo not drawn),"inconclusive: 50.1 µM [inhibitor, partial curve, poor fit]",
CN(C)CCCNc1nc(-c2ccccc2)nc2ccccc12,inactive,
Cc1ccc(C)c(SCC(=O)OCC(=O)c2ccco2)c1,"inconclusive: 31.6 µM [inhibitor, single point]",
Cc1cc(C)c(C(=O)/C=C/c2ccco2)c(=O)[nH]1,"inconclusive: 31.6 µM [inhibitor, single point]",
CCOC(=O)c1cc2c(=O)n3ccccc3nc2n(Cc2ccco2)c1=NC(=O)c1ccccc1OC,"inconclusive: 15.8 µM [inhibitor, single point]",
Cc1noc(C)c1S(=O)(=O)N1CCc2nc(-c3ccccc3)c3c(c2C1)CO[C@@H](C)C3,,inactive: -1.41% [at 12.4 µM]
Cc1c(Cl)c(C(F)F)nn1CC(=O)NC1C(=O)N2C(C(=O)O)=C(CSc3nnnn3C)CSC12 (stereo not drawn),"inconclusive: 31.6 µM [inhibitor, single point]",
CC(C)OC(=O)C1C2C=CC3(CN(Cc4cccs4)C(=O)C13)O2 (stereo not drawn),"inconclusive: 1 µM [inhibitor, full curve, poor fit]",
Cc1cc(C(F)F)n2ncc(C(=O)N3CCC(C(N)=O)CC3)c2n1,"inconclusive: 3.98 µM [inhibitor, single point]",
CN1CCN(c2ncc3ncc(=O)n(C4CC4)c3n2)CC1,inactive,
Cc1cc(=O)oc2cc(O[C@@H]3O[C@H](CO)[C@@H](O)[C@H](O)[C@H]3O)ccc12,inactive,
O=C(CNC(=O)c1cccc(F)c1)OCc1cc(=O)n2cc(Br)ccc2n1,"inconclusive: 39.8 µM [inhibitor, single point]",
Cc1ccc(-n2nnnc2SCn2nnc3ccccc3c2=O)c(C)c1,inactive,
O=C(CSc1ncnc2nc[nH]c12)Nc1ccccc1C(F)(F)F,"inconclusive: 28.2 µM [inhibitor, single point]",
FC(F)(F)c1cccc(CN2CCC(c3cc(-c4cccs4)n[nH]3)CC2)c1,inactive,
Oc1ccc2ccccc2c1CNc1cnc2ccccc2c1,"inconclusive: 44.7 µM [inhibitor, single point]",
Cc1cc(C(=O)CCl)c(C)n1Cc1ccco1,"inconclusive: 28.2 µM [inhibitor, single point]",
